From PMC12187018 come the findings set out here.

This experiment deals with T1, Flag-P2X7 (R) (UniProt Q99572).
T1 sequence: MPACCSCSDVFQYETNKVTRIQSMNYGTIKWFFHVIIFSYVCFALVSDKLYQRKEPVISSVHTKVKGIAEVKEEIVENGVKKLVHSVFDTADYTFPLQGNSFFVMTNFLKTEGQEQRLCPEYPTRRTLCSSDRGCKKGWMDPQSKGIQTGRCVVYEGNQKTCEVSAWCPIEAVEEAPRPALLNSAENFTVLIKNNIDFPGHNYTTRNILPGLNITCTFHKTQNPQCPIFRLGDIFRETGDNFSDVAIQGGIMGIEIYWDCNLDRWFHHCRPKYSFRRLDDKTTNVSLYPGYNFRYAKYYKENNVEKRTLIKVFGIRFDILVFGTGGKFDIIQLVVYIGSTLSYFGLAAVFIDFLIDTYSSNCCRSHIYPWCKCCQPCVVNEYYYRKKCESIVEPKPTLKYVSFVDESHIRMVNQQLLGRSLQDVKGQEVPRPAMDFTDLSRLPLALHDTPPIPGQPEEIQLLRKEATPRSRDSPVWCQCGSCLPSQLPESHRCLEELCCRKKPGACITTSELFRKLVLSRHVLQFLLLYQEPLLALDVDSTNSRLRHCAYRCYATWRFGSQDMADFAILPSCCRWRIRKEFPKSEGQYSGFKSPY
Nature of the experiment: co-IP; 293T cells co-transfected with HA-Env (virulent or vaccine) and one Flag-tagged host protein; lysis in 1% Triton X-100, 50 mM Tris-HCl pH 7.4, 150 mM NaCl; anti-Flag or anti-HA magnetic beads overnight; also done with 50 μM KCl (S2 Fig B-C).

Results are given in words; binding and its absence hold for the method and conditions named. Binding seen in cells or lysates may run through a third protein. Binding calls can cover weak binding; strength is not graded here. Sequences can lack the tags named with a protein.

As for “HA-Env of the attenuated EIAV vaccine strain (vaccine-Env)”, the binding result was “binds”.
